Values from PubChem BioAssay AID652259 (Drosophila RNAi Screening Center, 2013).
The deposit covers about 22,000 reagents; shown is an unselected part of those with a known target gene and a result. In the full data, 233 (1.1%) are marked active. 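Light values are raw, unnormalised plate reads; the ratio scores behind the reporter calls were not deposited.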 The numbers tell different reagents against one gene apart. A plus sign joins genes that one reagent is predicted to hit. Not given: the amount of reagent, the time to read-out, the dose of the treatment.

Test: 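Genome-wide hunt for genes that control Wingless pathway activity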 (primary screen)
System: Drosophila clone 8 imaginal disc epithelial cells
Knock-down reagent: long dsRNA against Drosophila genes
Conditions: pathway stimulated by co-transfected Wingless expression plasmid
Read-out: 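Dual luciferase reads per well after Wingless plasmid stimulation: reporter firefly light and Renilla control light; activity is firefly divided by Renilla, a ratio not deposited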
Scale: firefly reporter light: higher = more Wg reporter light, before normalisation; Renilla control light: higher = more transfected or surviving cells
Hit rule: 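Strong candidates differ from their plate mean by at least two out of four per-plate statistical tests; weak candidates meet just one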
Calls: active = candidate regulator (raises or lowers reporter); inactive = not a candidate

no.	Target gene	dsRNA no.	reporter change call, replicate 1	firefly reporter light, replicate 1	firefly reporter light, replicate 2	Renilla control light, replicate 1	Renilla control light, replicate 2	outcome
1	CG15096	1		24145		7136		inactive
2	Lint-O	1		20934		13492		inactive
3	Uev1A	1		11562		3242		inactive
4	CG9213	1		2021	5920	816	1962	inactive
5	eIF1	1		7041		2645		inactive
6	Bub1	1	Wg reporter activity raised	28913		3084		active
7	RtcB	1		3556	9428	1093	3410	inactive
8	CG15880	1		2964	6300	1196	2332	inactive
9	AnxB10	1		2490	8907	1139	3285	inactive
10	Sfp26Ad	1		15236		8420		inactive
11	pigs	1		3219		928		inactive
12	pigs	2		14586		7485		inactive
13	pigs	3		12785		8240		inactive
14	CG16868	1		8896		2692		inactive
15	Sf3b5	1		17591		3408		inactive
16	Mlc-c	1		2784	6792	793	1866	inactive
17	lncRNA:CR32661 + lncRNA:CR43157	1		20192		10356		inactive
18	Dnaaf6	1		7281		2603		inactive
19	CheA29a	1		5.25e5	4.90e5	2.10e5	1.79e5	inactive
20	Alg2	1		4592		1429		inactive
21	CG9981	1		17356		6912		inactive
22	CG17715	1		18795		5817		inactive
23	CG1835	1		13620		10026		inactive
24	CG17127	1		2660	7178	1163	4274	inactive
25	CG18335	1		7232		1955		inactive
26	CG10979	1		15194		3952		inactive

Next part (6 carried over from the part before).
no.	Target gene	dsRNA no.	reporter change call, replicate 1	firefly reporter light, replicate 1	firefly reporter light, replicate 2	Renilla control light, replicate 1	Renilla control light, replicate 2	outcome
21	CG9981	1		17356		6912		inactive
22	CG17715	1		18795		5817		inactive
23	CG1835	1		13620		10026		inactive
24	CG17127	1		2660	7178	1163	4274	inactive
25	CG18335	1		7232		1955		inactive
26	CG10979	1		15194		3952		inactive
27	Rh5	1		4641		1160		inactive
28	morgue	1		15515		4880		inactive
29	bic	1		15589		3810		inactive
30	Dyrk2	1		6396		1411		inactive
31	CG11594	1		5254		2344		inactive
32	AspRS	1		9392		2648		inactive
33	CG18661	1		3296	4515	952	2018	inactive
34	sa	1		8870		3883		inactive
35	Prosbeta5	1		2618	4949	802	2061	inactive
36	Df31	1		15565		3335		inactive
37	Df31	2		8.81e5	8.19e5	4.09e5	4.86e5	inactive
38	CheA84a	1		3801		1659		inactive
39	CG15395	1		2427	6199	725	1728	inactive
40	Eaf6	1		2412	11666	1268	4403	inactive
41	crb	1		1366	4001	789	1383	inactive
42	Ccdc58	1		6629		2694		inactive
43	Akh	1		7389		2499		inactive
44	RhoGEF64C	1		6182		2187		inactive
45	RhoGEF64C	2		977	4928	792	2556	inactive
46	sif	1		3217		1620		inactive
47	sif	2		2981	11908	2741	4825	inactive
48	sif	3		4.51e5	4.89e5	1.65e5	2.10e5	inactive
49	sif	4		5.44e5	5.78e5	1.73e5	2.04e5	inactive
